Several values for one entry are separate records, joined by “and”; a condition that tells them apart may be missing. Equal values may be shown once. The list shows a part of the results. These are further read-outs of the screen, such as a control signal, another cell line or another target. No call is given for them. The list favours compounds with an active or inconclusive main result. Potencies come from curve fits of mixed quality, noted in brackets.
Experiment: qHTS Assay to Find Inhibitors of Chronic Active B-Cell Receptor Signaling
Settings: ABC-DLBCL IkBa-CBG/CBR reporter, luminescence ratio (green luciferase fused to IkBa over red control in TMD8 lymphoma cells), 4 h
Summary of the method: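 Cell line TMD8 (human ABC DLBCL), stably expressing tet-inducible CBG68-IkBa fusion and CBR; IMDM/0.5% FBS; cpd up to 46 uM; dox induction, 4 h, 37C/5% CO2; dual luminescence; green/red ratio; MG132 control.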

[1] = measured here: CBR red luminescence, cell number
[2] = measured here: IkBa-CBG green luminescence

SMILES: O=C(COC(=O)C1(c2cccc(F)c2)CCCC1)NCc1ccc2c(c1)OCO2
- AC50 [1]: 18.4 µM [falling, single point]

SMILES: COc1ccc(C2=CC3=C(Br)C(=O)C(C)(OC(=O)c4ccco4)C(=O)C3=CO2)cc1 (configuration not stated)
- AC50 [1]: 7.08 µM [rising, partial curve, poor fit]

SMILES: Cc1ccc(C)c(NC(=O)CCN2CCc3ccccc3C2)c1
- AC50 [1]: 20 µM [falling, single point]

SMILES: Clc1nssc1=Nc1nncs1
- AC50 [1]: 29.1 µM [rising, single point]

SMILES: COc1c(OC(C)=O)ccc(/C=C/c2ccc3ccccc3n2)c1[N+](=O)[O-]
- AC50 [1]: 0.58 µM [rising, full curve]

SMILES: c1ccc(-c2c[n+]3c(n2-c2ccccc2)SCC3)cc1
- AC50 [1]: 0.562 µM [rising, full curve, poor fit]

SMILES: CC(C)CCC1(CCNC(C)c2cccs2)CCOC(C)(C)C1 (configuration not stated)
- AC50 [1]: 3.55 µM [falling, partial curve, poor fit]

SMILES: O=C(Nc1ccncc1)c1ccc2c(c1)C(=O)N(C1CCCCC1)C2=O
- AC50 [1]: 29.1 µM [rising, single point]

SMILES: CCOCCn1ccc2c(OCC(=O)Nc3ccccc3OC)cccc2c1=O
- AC50 [1]: 1.16 µM [falling, full curve]

SMILES: CC(C)(C)C(=O)/C=c1\s/c(=C\c2ccc(-c3ccc([N+](=O)[O-])cc3)o2)c(=O)n1CC(=O)NC(N)=O
- AC50 [1]: 0.1 µM [rising, full curve, poor fit]

SMILES: CN(C(=O)c1cc(-c2ccccc2)on1)C1CCCCC1
- AC50 [1]: 10 µM [falling, partial curve]

SMILES: Cn1c(N)c(C(C[N+](=O)[O-])c2c(F)cccc2Cl)c(=O)n(C)c1=O (configuration not stated)
- AC50 [1]: 35.5 µM [falling, single point]
- AC50 [2]: 5.01 µM [rising, single point]

SMILES: O=C(Nc1cccc(Cl)c1)N1CCOCC1
- AC50 [1]: 5.62 µM [rising, partial curve, poor fit]

SMILES: C=C(C)CSc1nc(N)c2c(C)c(C)sc2n1
- AC50 [1]: 1.41 µM [rising, partial curve]

SMILES: CC1(C)CSC(=NCc2ccccc2)N1C(=O)c1cccc([N+](=O)[O-])c1
- AC50 [1]: 2.91 µM [rising, partial curve, poor fit]

SMILES: O=S(=O)(c1ccc2c(c1)CCCN2)N1CCCC1
- AC50 [1]: 2.06 µM [rising, partial curve]

SMILES: COc1cc(CNCc2ccc(OC)c3ccccc23)cc(OC)c1OC
- AC50 [1]: 7.94 µM [falling, partial curve]

SMILES: COCc1cc(CN2CCCC2)c(O)c2ncccc12
- AC50 [1]: 0.891 µM [falling, full curve, poor fit]

SMILES: CCO[C@H]1OC(C(=O)NC2CC2)=C[C@@H](c2c[nH]c3ccccc23)[C@@H]1CCCO
- AC50 [1]: 3.16 µM [falling, single point]

SMILES: CC(=O)N/C(=C\c1ccccc1)C(=O)Nc1ccccc1C
- AC50 [1]: 12.6 µM [rising, partial curve, poor fit]

SMILES: COC(=O)c1ccc(COc2ccccc2/C=C/C(=O)c2ccc(OCC(=O)O)cc2)cc1
- AC50 [1]: 2.82 µM [falling, full curve, poor fit]

SMILES: N#CC/C(N)=N/Nc1nc2ccccc2nc1Cc1ccccc1
- AC50 [1]: 5.62 µM [falling, partial curve, poor fit]

SMILES: O=C(Nc1cc(S(=O)(=O)N2CCCCC2)ccc1O)c1ccccc1NS(=O)(=O)c1ccc(F)cc1
- AC50 [2]: 20.6 µM [rising, partial curve, poor fit]

SMILES: CC1CCCC(NC(=O)NC(=O)CCl)C1C (configuration not stated)
- AC50 [1]: 13 µM [falling, partial curve]

SMILES: CN=C1S/C(=C\c2ccc(OCC(=O)OC)c(OC)c2)C(=O)N1C
- AC50 [1]: 35.5 µM [falling, single point]

SMILES: CCOC(=O)N1CCN(S(=O)(=O)c2ccc(C(=O)Nc3sc4c(c3C(N)=O)CCN(CC)C4)cc2)CC1
- AC50 [1]: 11.2 µM [rising, single point]
- AC50 [2]: 35.5 µM [rising, partial curve, poor fit]

SMILES: Cc1cc(C(=O)NC(C)Cc2ccccc2)cc(C)c1[N+](=O)[O-] (configuration not stated)
- AC50 [1]: 8.91 µM [rising, partial curve, poor fit]

SMILES: Cn1c(CSCc2ccccc2)nnc1SCC(=O)Nc1nccs1
- AC50 [1]: 20.6 µM [falling, single point]
- AC50 [2]: 4.61 µM [rising, partial curve, poor fit]

SMILES: c1ccc(C2C3=C(Nc4ncnn42)c2ccccc2CCC3)cc1 (configuration not stated)
- AC50 [1]: 12.6 µM [falling, partial curve]

SMILES: O=[N+]([O-])c1cccc(/C=N\N=C2c3ccccc3-c3ccccc32)c1O
- AC50 [1]: 0.517 µM [rising, full curve, poor fit]

SMILES: O=[N+]([O-])c1ccc(-n2nnnc2CN2CCCCC2)cc1
- AC50 [1]: 10 µM [falling, partial curve]

SMILES: O=C(NCCc1ccccc1)c1cc(=O)[nH]c2ccccc12
- AC50 [1]: 10 µM [rising, partial curve, poor fit]

SMILES: Cc1cc(C(=O)Nc2cccc3ccccc23)c(C)o1
- AC50 [1]: 35.5 µM [rising, single point]

SMILES: CCOC1(c2ccccc2)OC(=O)c2ccccc21 (configuration not stated)
- AC50 [1]: 3.26 µM [rising, partial curve, poor fit]

SMILES: COc1cc(Br)c(CNc2cc(C)ccc2C)cc1OC
- AC50 [1]: 17.8 µM [falling, single point]

SMILES: CC1=C(c2ccc(F)cc2)[N+](=O)C(C)(C)N1[O-]
- AC50 [1]: 28.2 µM [falling, single point]

SMILES: C=CCOc1c(Cl)cc(CNc2nccs2)cc1OC
- AC50 [1]: 0.708 µM [rising, full curve]

SMILES: CCCCOC(=O)c1ccc(Nc2ncnc3[nH]ncc23)cc1
- AC50 [1]: 11.2 µM [rising, partial curve]

SMILES: COC(=O)c1ccccc1Sc1ncnc2onc(C)c12
- AC50 [1]: 17.8 µM [falling, single point]

SMILES: CCn1c(=O)cc(SCC(=O)Nc2ccc3c(c2)OCCO3)c2ccccc21
- AC50 [1]: 22.4 µM [falling, single point]

SMILES: Cc1ccc(NC(=O)/C=C/c2ccc([N+](=O)[O-])s2)cc1
- AC50 [1]: 0.461 µM [falling, full curve, poor fit]

SMILES: Cc1ccc(S(=O)(=O)CNC(=S)c2cccc(C)c2)cc1
- AC50 [2]: 29.1 µM [falling, single point]

SMILES: COc1cccc(NC(=O)C2CCN(S(=O)(=O)c3ccc4c(c3)NC(=O)C(C)S4)CC2)c1 (configuration not stated)
- AC50 [1]: 15.8 µM [falling, single point]

SMILES: COCCN1C(=O)c2oc3c(C)cc(C)cc3c(=O)c2C1c1cccc(O)c1 (configuration not stated)
- AC50 [1]: 32.6 µM [falling, single point]

SMILES: CCc1nnc2n1N=C(c1ccc(-c3cc(Cl)ccc3Cl)o1)CS2
- AC50 [1]: 22.4 µM [falling, single point]

SMILES: c1ccc(-n2ncc3c(NCc4cccnc4)ncnc32)cc1
- AC50 [1]: 0.164 µM [rising, partial curve, poor fit]

SMILES: O=C(Nc1ccccc1)Nc1ncc([N+](=O)[O-])s1
- AC50 [1]: 0.355 µM [falling, full curve]

SMILES: CN(CC(=O)O/N=C(\N)c1ccc([N+](=O)[O-])cc1)S(=O)(=O)c1ccc2ccccc2c1
- AC50 [1]: 6.51 µM [rising, single point]

SMILES: CC(=O)/C(=C/N(C)C)C(=O)Nc1ccc(Cl)cc1Cl
- AC50 [1]: 31.6 µM [falling, single point]

SMILES: CN1c2ccccc2C(O)=C(C(=S)Nc2ccc(F)c(Cl)c2)S1(=O)=O
- AC50 [1]: 16.4 µM [falling, partial curve]

SMILES: Cc1[nH]c(-c2ccc(F)cc2)cc1C(=O)N1CCN(c2ccc(Cl)cc2)CC1
- AC50 [1]: 35.5 µM [falling, partial curve, poor fit]

SMILES: O=C(CN1CCC(NC(=O)c2ccco2)CC1)Nc1cccc2ccccc12
- AC50 [1]: 29.1 µM [rising, single point]

SMILES: COc1ccc(CNC(=O)CSc2nn3c(=O)c(C(C)(C)C)nnc3s2)cc1OC
- AC50 [1]: 35.5 µM [falling, partial curve, poor fit]

SMILES: O=c1c2sc(-c3ccccc3)cc2nc2n1CCC2
- AC50 [1]: 10.3 µM [falling, partial curve]

SMILES: O=C(CCSc1ccc(Br)cc1)c1ccc(O)cc1
- AC50 [1]: 35.5 µM [falling, single point]

SMILES: Nc1cc(=O)[nH]c(SCC(=O)Nc2ccc(Cl)c(Cl)c2)n1
- AC50 [1]: 10.3 µM [rising, partial curve]

SMILES: O=C(CN1CCCC1)Nc1ccc(Br)cc1[N+](=O)[O-]
- AC50 [1]: 35.5 µM [rising, single point]

SMILES: N#Cc1ccc(C2=NC(C(F)(F)F)(C(F)(F)F)c3c(n(Cc4ccco4)c(=O)[nH]c3=O)N2)cc1
- AC50 [1]: 7.94 µM [rising, partial curve, poor fit]

SMILES: COc1ccc(CC2S/C(=N/N=C/c3ccccc3O)NC2=O)cc1 (configuration not stated)
- AC50 [1]: 1.58 µM [falling, full curve]

SMILES: CC1=C(C(=O)Nc2ccccn2)C(c2ccc(N(C)C)cc2)n2ncnc2N1 (configuration not stated)
- AC50 [1]: 10 µM [rising, partial curve, poor fit]

SMILES: O=C(Nc1ccccc1)Nc1ccccn1
- AC50 [1]: 14.1 µM [falling, single point] and 29.1 µM [falling, single point]

SMILES: COCCn1c(C)cc(/C=C2/SC(=O)N(C(C)C(=O)OC)C2=O)c1C (configuration not stated)
- AC50 [1]: 15.8 µM [rising, single point]
- AC50 [2]: 11.2 µM [falling, partial curve, poor fit]

SMILES: CC(C)CNc1nc(Oc2ccc(=O)[nH]n2)nc(N2CCOCC2)n1
- AC50 [1]: 35.5 µM [falling, single point]

Source: PubChem BioAssay AID493014 (National Center for Advancing Translational Sciences (NCATS), 2011)
